Measurements reported in PubChem BioAssay AID1224828 (NIAID, 2016)
Assay: 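Knock-downs that increase or decrease LPS-induced p65 nuclear translocation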 (primary screen). System: mouse RAW264.7 G9 macrophage reporter cells (GFP-p65, Tnf promoter-mCherry). Knock-down reagent: siRNA pool against mouse genes, 100 nM. Time to read-out: 2 days siRNA transfection, then 40 min LPS before fixation. Conditions: LPS (Salmonella minnesota R595) at 10 ng/ml. Detection: 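Microscopy ratio of nuclear to perinuclear-ring GFP-p65 signal, scaled to the plate median; gene score is the average of two replicate robust z-scores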. Direction: p65 translocation robust z-score: higher = more nuclear NF-kappaB p65 after LPS than the plate median; nuclear/cytoplasmic p65 ratio: higher = more nuclear NF-kappaB p65. Hit rule: 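Active if robust z is above 3.3 (negative regulators) or below -1.56, the Tlr4 control median (positive regulators); activity score 50 or more; control wells not called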. Calls: active = hit (p65 shift raised or lowered); inactive = no clear change.
This is one part, drawn at random, of about 17,000 reagents. Of all reagents, 762 (4.5%) are marked active. 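Active calls include both raised and lowered p65 entry, mostly lowered; wells with fewer than 50 cells lack a z-score.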 Raw values are not corrected between plates. Unmarked entries are inactive.

Gene	p65 translocation robust z-score	nuclear/cytoplasmic p65 ratio, rep 1	nuclear/cytoplasmic p65 ratio, rep 2	low cell count flag
Vwf (Von Willebrand factor)	-0.39	1.48	1.43	enough cells to score
Tspan17 (tetraspanin 17)	-0.49	1.39	1.32	enough cells to score
Vmn1r10 (vomeronasal 1 receptor 10)	0.29	1.38	1.3	enough cells to score
Il5 (interleukin 5)	0.05	1.46	1.41	enough cells to score
A130004G07Rik (retired record)	1.43	1.59	1.7	enough cells to score
Zfp212 (Zinc finger protein 212)		1.21	1.16	fewer than 50 cells per well; well left out of scoring
Thbs1 (thrombospondin 1)	0.36	1.53	1.61	enough cells to score
Tmem64 (transmembrane protein 64)	-0.83	1.4	1.34	enough cells to score
Pak5 (p21 (RAC1) activated kinase 5)	-1.37	0	1.2	enough cells to score
Tfrc (transferrin receptor)	0.76	1.56	1.69	enough cells to score
Klra21 (killer cell lectin-like receptor subfamily A, member 21)	-0.95	1.42	1.2	enough cells to score
Prkar2a (protein kinase, cAMP dependent regulatory, type II alpha)	0.02	1.71	1.36	enough cells to score
Crygd (crystallin, gamma D)	-0.69	1.43	1.24	enough cells to score
Pkp4 (plakophilin 4)	1.72	1.61	1.75	enough cells to score

3 entries from above, limited to “nuclear/cytoplasmic p65 ratio, rep 2”:
Tfrc (transferrin receptor) = 1.69
Klra21 (killer cell lectin-like receptor subfamily A, member 21) = 1.2
Prkar2a (protein kinase, cAMP dependent regulatory, type II alpha) = 1.36

Further results:
Gene	p65 translocation robust z-score	nuclear/cytoplasmic p65 ratio, rep 1	nuclear/cytoplasmic p65 ratio, rep 2	low cell count flag
Foxo6 (forkhead box O6)	0.79	1.66	1.62	enough cells to score
Il1r2 (interleukin 1 receptor, type II)	-0.42	1.38	1.36	enough cells to score
Or4c107 (olfactory receptor family 4 subfamily C member 107)	-2.07 (active)	1.38	1.24	enough cells to score
Arl5a (ADP-ribosylation factor-like 5A)	1.14	1.68	1.89	enough cells to score
Vwa3a (von Willebrand factor A domain containing 3A)		1.55	1.69	fewer than 50 cells per well; well left out of scoring
Ccn3 (cellular communication network factor 3)	1.17	1.41	1.55	enough cells to score
Gabra5 (gamma-aminobutyric acid type A receptor subunit alpha 5)	-1.59 (active)	1.21	1.18	enough cells to score
Slu7 (SLU7 splicing factor homolog (S. cerevisiae))	0.34	1.42	1.84	enough cells to score
Tlm (T lymphoma oncogene)		1.41	1.3	fewer than 50 cells per well; well left out of scoring
Hsf1 (heat shock factor 1)	1.16	1.58	1.51	enough cells to score
